# Reference: publication PMC9402538, “Rational design of a sensitivity-enhanced tracer for discovering efficient APC–Asef inhibitors” (Nature Communications, 2022)
# Several values for one entry are separate records, joined by “and”; a condition that tells them apart may be missing. Equal values may be shown once. Further values from the same series stand in other lists. Where a SMILES comes first, the peptide text is derived from it. The star is where a group is joined. Benzoyl(4-OMe) = COc1ccc(C(=O)*)cc1
# Test system: SW480 cells
# Experiment: xCELLigence RTCA-DP migration assay, SW480
# Type: cell-based
# Conditions: 50 μM
# Protocol: Real-time cell migration was evaluated using the xCELLigence RTCA-DP system (Roche). Briefly, SW480 cells were serum-starved for 8 h, digested, and resuspended in serum-free medium. The wells in the upper chamber of CIM plate 16 were preequilibrated with 30 μL serum-free medium for 1 h and filled with 100 μL of 4 × 10^4 serum-starved SW480 cells per well. The wells in the lower chamber of CIM plate 16 were filled with complete medium. […] Cell index values were detected every 15 min throughout the procedure, and the data were collected and analyzed with RTCA software (version 2.3).
structure (smiles),measurement,setting,value
COc1ccc(C(=O)N[C@@H](C)C(=O)NCC(=O)N[C@@H](CCC(=O)O)C(=O)N[C@@H](CO)C(=O)N[C@@H](CC(C)C)C(=O)N[C@@H](Cc2ccc(O)cc2)C(=O)N[C@@H](CCC(=O)O)C(N)=O)cc1 [MAI-516] ({Benzoyl(4-OMe)}-AGESLYE-NH2),Cell index,Time 0 h (first reading),0
same,Cell index,Time 1.86 h,0.1225 and 0.16 and 0.1054 and 0.1518
same,Cell index,Time 2.11 h,0.0786 and 0.0887 and 0.0517 and 0.0718
same,Cell index,Time 2.36 h,0.0778 and 0.0891 and 0.0546 and 0.0648
same,Cell index,Time 2.61 h,0.0834 and 0.0901 and 0.0611 and 0.0634
same,Cell index,Time 3.36 h,0.0984 and 0.1047 and 0.0757 and 0.0677
same,Cell index,Time 3.61 h,0.1001 and 0.1111 and 0.0772 and 0.068
same,Cell index,Time 3.86 h,0.1064 and 0.1135 and 0.0864 and 0.071
same,Cell index,Time 4.11 h,0.1096 and 0.1206 and 0.0894 and 0.0738
same,Cell index,Time 4.36 h,0.1163 and 0.1258 and 0.0949 and 0.0781
same,Cell index,Time 4.61 h,0.1186 and 0.1315 and 0.1033 and 0.0827
same,Cell index,Time 4.86 h,0.1235 and 0.1381 and 0.1077 and 0.0866
same,Cell index,Time 5.11 h,0.1264 and 0.1412 and 0.1143 and 0.09
same,Cell index,Time 5.36 h,0.1298 and 0.1475 and 0.1176 and 0.0939
same,Cell index,Time 5.61 h,0.1379 and 0.152 and 0.1259 and 0.0992
same,Cell index,Time 5.86 h,0.1421 and 0.1565 and 0.1317 and 0.1026
same,Cell index,Time 6.11 h,0.1432 and 0.1621 and 0.1354 and 0.1072
same,Cell index,Time 6.36 h,0.1479 and 0.1647 and 0.1411 and 0.1107
same,Cell index,Time 6.61 h,0.1525 and 0.1693 and 0.1456 and 0.1162
same,Cell index,Time 6.86 h,0.1569 and 0.1748 and 0.1474 and 0.1194
same,Cell index,Time 7.11 h,0.1604 and 0.1783 and 0.1509 and 0.1235
same,Cell index,Time 7.36 h,0.1616 and 0.1856 and 0.1514 and 0.1272
same,Cell index,Time 7.61 h,0.1665 and 0.188 and 0.1551 and 0.1294
same,Cell index,Time 7.86 h,0.1704 and 0.1911 and 0.1601 and 0.135
same,Cell index,Time 8.11 h,0.1753 and 0.194 and 0.1635 and 0.1388
same,Cell index,Time 8.36 h,0.1752 and 0.1987 and 0.163 and 0.1411
same,Cell index,Time 8.61 h,0.1784 and 0.2022 and 0.1662 and 0.1449
same,Cell index,Time 8.86 h,0.1819 and 0.2057 and 0.1687 and 0.1483
same,Cell index,Time 9.11 h,0.1847 and 0.2086 and 0.1722 and 0.1526
same,Cell index,Time 9.36 h,0.1879 and 0.2118 and 0.175 and 0.1549
same,Cell index,Time 9.61 h,0.1905 and 0.2159 and 0.1775 and 0.1591
same,Cell index,Time 9.86 h,0.1945 and 0.2149 and 0.1815 and 0.1637
same,Cell index,Time 10.11 h,0.1979 and 0.2199 and 0.1851 and 0.165
same,Cell index,Time 10.36 h,0.1977 and 0.2218 and 0.185 and 0.1681
same,Cell index,Time 10.61 h,0.2033 and 0.2251 and 0.1904 and 0.1711
same,Cell index,Time 10.86 h,0.2028 and 0.2274 and 0.1902 and 0.1739
same,Cell index,Time 11.11 h,0.2051 and 0.2299 and 0.192 and 0.1756
same,Cell index,Time 11.37 h,0.2102 and 0.2316 and 0.196 and 0.1783
same,Cell index,Time 11.62 h,0.2124 and 0.2329 and 0.2003 and 0.1822
same,Cell index,Time 11.87 h,0.2123 and 0.238 and 0.1996 and 0.1835
same,Cell index,Time 12.12 h,0.215 and 0.2411 and 0.2009 and 0.1859
same,Cell index,Time 12.37 h,0.2203 and 0.2401 and 0.2064 and 0.1896
same,Cell index,Time 12.62 h,0.2191 and 0.2442 and 0.2052 and 0.1901
same,Cell index,Time 12.87 h,0.2248 and 0.245 and 0.2107 and 0.194
same,Cell index,Time 13.12 h,0.2263 and 0.2481 and 0.2115 and 0.1944
same,Cell index,Time 13.37 h,0.23 and 0.2494 and 0.2159 and 0.1998
same,Cell index,Time 13.62 h,0.2306 and 0.2534 and 0.2189 and 0.2001
same,Cell index,Time 13.87 h,0.2358 and 0.2541 and 0.2221 and 0.2037
same,Cell index,Time 14.12 h,0.2378 and 0.2593 and 0.2231 and 0.2052
same,Cell index,Time 14.37 h,0.2402 and 0.2624 and 0.2263 and 0.2068
same,Cell index,Time 14.62 h,0.2444 and 0.2632 and 0.2302 and 0.2131
same,Cell index,Time 14.87 h,0.2431 and 0.268 and 0.2294 and 0.2132
same,Cell index,Time 15.12 h,0.2476 and 0.2705 and 0.2323 and 0.2163
same,Cell index,Time 15.37 h,0.2502 and 0.2755 and 0.2361 and 0.2174
same,Cell index,Time 15.62 h,0.2556 and 0.2765 and 0.2389 and 0.2205
same,Cell index,Time 15.87 h,0.259 and 0.2799 and 0.2437 and 0.2229
same,Cell index,Time 16.12 h,0.2595 and 0.283 and 0.245 and 0.2238
same,Cell index,Time 16.37 h,0.2621 and 0.2866 and 0.2478 and 0.2283
same,Cell index,Time 16.62 h,0.2699 and 0.286 and 0.2533 and 0.2319
same,Cell index,Time 16.87 h,0.2702 and 0.2918 and 0.2541 and 0.2354
same,Cell index,Time 17.12 h,0.2756 and 0.2938 and 0.2589 and 0.2362
same,Cell index,Time 17.37 h,0.2798 and 0.2964 and 0.2619 and 0.2399
same,Cell index,Time 17.62 h,0.2828 and 0.3007 and 0.265 and 0.2426
same,Cell index,Time 17.87 h,0.2848 and 0.3076 and 0.2647 and 0.2423
same,Cell index,Time 18.12 h,0.2903 and 0.3103 and 0.2731 and 0.2479
same,Cell index,Time 18.37 h,0.292 and 0.3131 and 0.2751 and 0.2498
same,Cell index,Time 18.62 h,0.2954 and 0.3161 and 0.2764 and 0.2544
same,Cell index,Time 18.87 h,0.2986 and 0.3209 and 0.2807 and 0.2557
same,Cell index,Time 19.12 h,0.3022 and 0.3243 and 0.2839 and 0.2588
same,Cell index,Time 19.37 h,0.3081 and 0.3266 and 0.2888 and 0.2628
same,Cell index,Time 19.62 h,0.3118 and 0.3286 and 0.2913 and 0.2675
same,Cell index,Time 19.87 h,0.313 and 0.3352 and 0.2917 and 0.27
same,Cell index,Time 20.12 h,0.316 and 0.3405 and 0.3004 and 0.2735
same,Cell index,Time 20.37 h,0.3218 and 0.3437 and 0.3006 and 0.2761
same,Cell index,Time 20.62 h,0.3273 and 0.3454 and 0.3062 and 0.2792
same,Cell index,Time 20.87 h,0.3311 and 0.3497 and 0.3096 and 0.2815
same,Cell index,Time 21.12 h,0.3323 and 0.3532 and 0.3101 and 0.285
same,Cell index,Time 21.37 h,0.3348 and 0.3601 and 0.3145 and 0.2857
same,Cell index,Time 21.62 h,0.3388 and 0.3663 and 0.3177 and 0.2891
same,Cell index,Time 21.87 h,0.3435 and 0.3699 and 0.3245 and 0.292
same,Cell index,Time 22.12 h,0.3489 and 0.3734 and 0.3274 and 0.297
same,Cell index,Time 22.37 h,0.3518 and 0.3813 and 0.3325 and 0.2971
